Reference: PubChem BioAssay AID504847 (National Center for Advancing Translational Sciences (NCATS), 2011)
Among all 400,000 compounds or so, about 3,700 (0.93%) were called active. Inconclusive results, whose numbers are uncertain, are shown with a selection of clear calls. The call rests on the fitted dose curve; in most records, active means well fitted inhibition curve with a large enough effect; inconclusive means small, poorly fitted or top-dose-only effect, or another doubt; inactive means no such curve, though single readings can be large or run the other way. A potency beside an inconclusive call is a rough fit, not a confirmed value.

Chains of the proteins cited; added tags and fusions are not shown. Lines headed by an entry give the natural chain unless they say otherwise; changes in a name come on top.
UniProt P11473: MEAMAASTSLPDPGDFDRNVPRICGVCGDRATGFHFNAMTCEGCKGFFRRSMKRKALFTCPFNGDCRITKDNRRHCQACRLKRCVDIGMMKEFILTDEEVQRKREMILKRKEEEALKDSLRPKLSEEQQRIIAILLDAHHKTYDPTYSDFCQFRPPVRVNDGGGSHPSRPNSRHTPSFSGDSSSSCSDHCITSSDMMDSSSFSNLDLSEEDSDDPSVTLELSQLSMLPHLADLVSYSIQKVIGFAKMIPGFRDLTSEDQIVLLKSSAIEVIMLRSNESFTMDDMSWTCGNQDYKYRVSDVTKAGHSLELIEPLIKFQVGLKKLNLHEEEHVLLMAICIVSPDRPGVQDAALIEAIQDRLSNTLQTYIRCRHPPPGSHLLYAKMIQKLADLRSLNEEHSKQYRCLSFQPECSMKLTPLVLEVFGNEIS

target: Vitamin D3 receptor (Homo sapiens) (UniProt P11473); assay: Inhibitors of the vitamin D receptor (VDR): qHTS; conditions: VDR-SRC2-3 peptide fluorescence polarization, 2 h; max response, negative = inhibition: stronger effect = lower value
Procedure, shortened: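 Measured by FP: displacement of SRC2-3 coactivator peptide from VDR by library compounds, following a two-hour ambient incubation.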
On the % scale 0 is the no-effect control and ±100 the full control effect; potency means the concentration at half of the fitted maximal effect.

| SMILES | max response, negative = inhibition | Potency |
| --- | --- | --- |
| O=Cc1ccc2cccnc2n1 | inactive: -19.9% | – |
| CC(=O)c1ccc(N2CCC(C(=O)O)CC2)cc1 | inactive: 0% | – |
| CCOC(=O)c1c(NC(=S)N2CCN(C)CC2)sc2c1CCN(C(=O)OCC)C2 | – | inconclusive: 89.1 µM [inhibitor, partial curve, poor fit] |
| CCOCCOc1cccc(C(=O)NC(C)c2ccc3ccccc3c2)c1 (centres undefined) | – | inconclusive: 100 µM [inhibitor, single point] |
| Cc1ccc(-c2cc(C(=O)NC3CCCC3)no2)cc1 | – | inconclusive: 100 µM [inhibitor, partial curve, poor fit] |
| O=C1COc2ccc(C(=O)COC(=O)c3ccc([N+](=O)[O-])cc3Cl)cc2N1 | inactive: -27.6% | – |
| C=CCn1ncc(OC)c(Cl)c1=O | – | inconclusive: 70.8 µM [inhibitor, partial curve, poor fit] |
| Cc1ccc(O)c(C(=O)C=Cc2ccccc2)c1 | – | inconclusive: 56.2 µM [inhibitor, partial curve, poor fit] |
| O=C(/C=C/c1ccc([N+](=O)[O-])cc1)Oc1ccc(/C=N/NC(=O)c2ccncc2)cc1 | – | inconclusive: 56.2 µM [inhibitor, partial curve, poor fit] |
| COc1ccc(OC)c(-c2cc(C(=O)Nc3c(C)nn(Cc4ccccc4C)c3C)no2)c1 | inactive: 14% | – |
| O=C1NC(=Nc2ccccc2)S/C1=C\C=C\c1ccco1 | – | inconclusive: 79.4 µM [inhibitor, partial curve, poor fit] |
| Cc1cc(=O)nc2c3ccccc3n(CC(=O)NCCCN3CCOCC3)n12 | – | inconclusive: 39.8 µM [inhibitor, partial curve, poor fit] |
| O=[N+]([O-])c1ccc(Cl)c(S(=O)(=O)Nc2cccc(S(=O)(=O)NC3=NCCC3)c2)c1 | – | active: 79.4 µM |
| CC(=O)/C=C/c1ccc2ccccc2n1 | – | inconclusive: 56.2 µM [inhibitor, partial curve, poor fit] |
| Cc1ccc2c(c1)c1c(n2CC(O)Cn2nc(C)c(Br)c2C)C(=O)CCC1 (centres undefined) | inactive: 11.3% | – |
| O=S(=O)(/N=S1/CC=CCN1S(=O)(=O)c1ccccc1)c1ccccc1 (centres undefined) | – | active: 3.55 µM |
| CCCn1cc(S(=O)(=O)c2ccc(Cl)cc2)c(=O)c2cc(OC)ccc21 | – | inconclusive: 31.6 µM [inhibitor, single point] |
| CCOc1cc(C)ccc1OCc1nnc(SCC(=O)c2cccc([N+](=O)[O-])c2)n1C | – | inconclusive: 79.4 µM [inhibitor, single point] |
| O=C1/C(=C/c2ccccc2O)SC(=S)N1Cc1cccnc1 | – | inconclusive: 56.2 µM [inhibitor, partial curve, poor fit] |

Single records, as listed above:
O=Cc1ccc2cccnc2n1 in the list: max response, negative = inhibition: inactive: -19.9%
C=CCn1ncc(OC)c(Cl)c1=O in the list: Potency: inconclusive: 70.8 µM [inhibitor, partial curve, poor fit]
